{"source": "PubChem BioAssay AID652272 (Drosophila RNAi Screening Center, 2013)", "screen": "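Genes whose knock-down decreases or increases Hedgehog reporter output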 (primary screen)", "cells": "Drosophila clone 8 (Cl8) cells", "knock-down reagent": "long dsRNA against Drosophila genes", "measured": "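Firefly light from a Hedgehog-responsive ptc promoter reporter and Renilla reference light, both read on a plate reader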", "scale": "firefly Hh reporter signal: higher = more ptc reporter light; Renilla reference signal: higher = more Renilla control light", "active means": "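Called a hit if the two-replicate mean z-score lies below -2 or above +3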", "calls": "active = hit: reporter lowered or raised; inactive = not a hit", "note": "The deposit covers about 21,000 reagents; this is a random part of those that have a named target and a result. Of all reagents, 503 (2.4%) were called active. 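Raw plate light values, not normalised; calls rest on replicate z-scores that were not deposited; hits include reporter decreases as well as increases.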 Names joined by + are all predicted targets of the reagent. Not given: the amount of reagent, the time to read-out."}
{"gene":"CG33301","firefly Hh reporter signal, replicate 1":1.02e5,"firefly Hh reporter signal, replicate 2":42809,"Renilla reference signal, replicate 1":2647,"Renilla reference signal, replicate 2":4325,"outcome":"inactive"}
{"gene":"Gr22b","firefly Hh reporter signal, replicate 1":4.52e5,"firefly Hh reporter signal, replicate 2":2.78e5,"Renilla reference signal, replicate 1":26400,"Renilla reference signal, replicate 2":5897,"outcome":"inactive"}
{"gene":"CG2182","firefly Hh reporter signal, replicate 1":1.06e5,"firefly Hh reporter signal, replicate 2":95991,"Renilla reference signal, replicate 1":4105,"Renilla reference signal, replicate 2":3619,"outcome":"inactive"}
{"gene":"Dh31","firefly Hh reporter signal, replicate 1":98040,"firefly Hh reporter signal, replicate 2":56360,"Renilla reference signal, replicate 1":2544,"Renilla reference signal, replicate 2":4988,"outcome":"inactive"}
{"gene":"CG32718","firefly Hh reporter signal, replicate 1":5.14e5,"firefly Hh reporter signal, replicate 2":1.45e5,"Renilla reference signal, replicate 1":28361,"Renilla reference signal, replicate 2":3563,"outcome":"inactive"}
{"gene":"CG5504","firefly Hh reporter signal, replicate 1":90506,"firefly Hh reporter signal, replicate 2":49928,"Renilla reference signal, replicate 1":3964,"Renilla reference signal, replicate 2":1882,"outcome":"inactive"}
{"gene":"CG11342","firefly Hh reporter signal, replicate 1":45829,"firefly Hh reporter signal, replicate 2":49607,"Renilla reference signal, replicate 1":4438,"Renilla reference signal, replicate 2":3126,"outcome":"inactive"}
{"gene":"ZC3H3","firefly Hh reporter signal, replicate 1":3399,"firefly Hh reporter signal, replicate 2":17248,"Renilla reference signal, replicate 1":874,"Renilla reference signal, replicate 2":1671,"outcome":"active"}
{"gene":"Nop17l","firefly Hh reporter signal, replicate 1":1.02e5,"firefly Hh reporter signal, replicate 2":43776,"Renilla reference signal, replicate 1":4133,"Renilla reference signal, replicate 2":1924,"outcome":"inactive"}
{"gene":"CDase","firefly Hh reporter signal, replicate 1":73128,"firefly Hh reporter signal, replicate 2":63383,"Renilla reference signal, replicate 1":1273,"Renilla reference signal, replicate 2":1827,"outcome":"inactive"}
{"gene":"CG15765","firefly Hh reporter signal, replicate 1":66952,"firefly Hh reporter signal, replicate 2":35597,"Renilla reference signal, replicate 1":1845,"Renilla reference signal, replicate 2":884,"outcome":"inactive"}
{"gene":"CtsK2","firefly Hh reporter signal, replicate 1":75056,"firefly Hh reporter signal, replicate 2":53078,"Renilla reference signal, replicate 1":3828,"Renilla reference signal, replicate 2":2483,"outcome":"inactive"}
{"gene":"CG6356","firefly Hh reporter signal, replicate 1":4.04e5,"firefly Hh reporter signal, replicate 2":73595,"Renilla reference signal, replicate 1":23065,"Renilla reference signal, replicate 2":2715,"outcome":"inactive"}
{"gene":"sordd2 + sordd1","firefly Hh reporter signal, replicate 1":68231,"firefly Hh reporter signal, replicate 2":1.08e5,"Renilla reference signal, replicate 1":1648,"Renilla reference signal, replicate 2":2248,"outcome":"inactive"}
{"gene":"MFS12","firefly Hh reporter signal, replicate 1":77132,"firefly Hh reporter signal, replicate 2":33978,"Renilla reference signal, replicate 1":2842,"Renilla reference signal, replicate 2":1334,"outcome":"inactive"}
{"gene":"Ugt303A1","firefly Hh reporter signal, replicate 1":70146,"firefly Hh reporter signal, replicate 2":83112,"Renilla reference signal, replicate 1":2162,"Renilla reference signal, replicate 2":2038,"outcome":"inactive"}
{"gene":"CG12708","firefly Hh reporter signal, replicate 1":90845,"firefly Hh reporter signal, replicate 2":2.32e5,"Renilla reference signal, replicate 1":3220,"Renilla reference signal, replicate 2":10519,"outcome":"inactive"}
{"gene":"CG17349","firefly Hh reporter signal, replicate 1":84515,"firefly Hh reporter signal, replicate 2":40964,"Renilla reference signal, replicate 1":2500,"Renilla reference signal, replicate 2":4440,"outcome":"inactive"}
{"gene":"CG5089","firefly Hh reporter signal, replicate 1":88140,"firefly Hh reporter signal, replicate 2":72844,"Renilla reference signal, replicate 1":3954,"Renilla reference signal, replicate 2":3120,"outcome":"inactive"}
{"gene":"CG6785","firefly Hh reporter signal, replicate 1":60465,"firefly Hh reporter signal, replicate 2":46466,"Renilla reference signal, replicate 1":3110,"Renilla reference signal, replicate 2":2144,"outcome":"inactive"}
{"gene":"PIG-Wa","firefly Hh reporter signal, replicate 1":94171,"firefly Hh reporter signal, replicate 2":1.20e5,"Renilla reference signal, replicate 1":2371,"Renilla reference signal, replicate 2":3088,"outcome":"inactive"}

Not a retest: entries from further up.
{"gene":"CG6356","firefly Hh reporter signal, replicate 1":4.04e5,"firefly Hh reporter signal, replicate 2":73595,"Renilla reference signal, replicate 1":23065,"Renilla reference signal, replicate 2":2715,"outcome":"inactive"}
{"gene":"sordd2 + sordd1","firefly Hh reporter signal, replicate 1":68231,"firefly Hh reporter signal, replicate 2":1.08e5,"Renilla reference signal, replicate 1":1648,"Renilla reference signal, replicate 2":2248,"outcome":"inactive"}
